PubChem BioAssay AID248 (DTP/NCI, 2004)
The list is a part of this screen's results and no random one: it is rich in T/C values a quarter to a half above the control, in often repeated tests (any T/C) and in doses without a T/C. Other doses and runs of a compound stand elsewhere. T/C: endpoint of the treated group in % of that of the vehicle group. Some entries give survivors of the animals treated and no T/C: the source holds a T/C of zero for them, seemingly a mark for toxic or unscored doses. Some doses without a T/C left all or most animals alive at the check, yet need not have been tolerated: the source hardly ever lists a survival T/C far under the control, and the zero likely stands for such cases as well. Counts of survivors are from the toxicity check (mostly the fifth day) where no day follows; animals may have died later. Schedules are NCI's codes, read here as Q, the interval in days (D) or hours (H), X, the number of doses. Some entries hold several experiments; the values are given in rising order. Where survival is the endpoint, the PubChem record calls one and a half times the control and up active, and a quarter to a half above the control has no call in these data; cut-offs in other NCI protocols can differ.

System: L1210 leukemia ip in BDF1 mice, survival T/C
Experiment: NCI In Vivo Anticancer Drug Screen. Data for tumor model L1210 Leukemia (intraperitoneal) in B6D2F1 (BDF1) mice
Settings: T/C endpoint: mean survival time, higher T/C = longer survival
[1] = dose: 50.0 mg/kg/injection, schedule: Q04DX003 (ip), vehicle: saline with Tween-80
[2] = dose: 100.0 mg/kg/injection, schedule: Q04DX003 (ip), vehicle: saline with Tween-80
[3] = dose: 200.0 mg/kg/injection, schedule: Q04DX003 (ip), vehicle: saline with Tween-80
[4] = dose: 400.0 mg/kg/injection, schedule: Q04DX003 (ip), vehicle: saline with Tween-80
[5] = dose: 100.0 mg/kg/injection, schedule: Q01DX009 (ip), vehicle: Klucel (hydroxypropylcellulose) (HPC)
[6] = dose: 400.0 mg/kg/injection, schedule: Q01DX009 (ip), vehicle: Klucel (hydroxypropylcellulose) (HPC)
[7] = dose: 300.0 mg/kg/injection, schedule: Q01DX001 (ip), vehicle: saline
[8] = dose: 200.0 mg/kg/injection, schedule: Q04DX003 (ip), vehicle: Klucel (hydroxypropylcellulose) (HPC)
[9] = dose: 400.0 mg/kg/injection, schedule: Q01DX001 (ip), vehicle: saline
[10] = dose: 400.0 mg/kg/injection, schedule: Q04DX003 (ip), vehicle: Klucel (hydroxypropylcellulose) (HPC)
[11] = dose: 150.0 mg/kg/injection, schedule: Q01DX009 (ip), vehicle: saline
[12] = dose: 400.0 mg/kg/injection, schedule: Q04DX002 (ip), vehicle: Klucel (hydroxypropylcellulose) (HPC)

For `C[N+](C)(CCCCOCCCC[N+](C)(C)Cc1ccc([N+](=O)[O-])cc1)Cc1ccc([N+](=O)[O-])cc1`, the survivor count (dose: 6.0 mg/kg/injection, schedule: Q04DX003 (ip), vehicle: saline with Tween-80) was 0 of 6, the survivor count (dose: 12.5 mg/kg/injection, schedule: Q04DX003 (ip), vehicle: saline with Tween-80) was 0 of 6 and the survivor count (dose: 25.0 mg/kg/injection, schedule: Q04DX003 (ip), vehicle: saline with Tween-80) was 0 of 6. The survivor count [1] was 0 of 6, the survivor count [2] was 0 of 6 and the survivor count [3] was 0 of 6. The survivor count [4] was 0 of 6.

With `CCN=C(c1ccc(NC(=O)c2ccc(C(=O)Nc3ccc(C(=NCC)N(CC)C(=O)NC)cc3)cc2)cc1)N(CC)C(=O)NC` the survivor count (dose: 25.0 mg/kg/injection, schedule: Q01DX015 (ip), vehicle: methylcellulose (MC)) was 1 of 6 and the survivor count (dose: 50.0 mg/kg/injection, schedule: Q01DX015 (ip), vehicle: methylcellulose (MC)) was 0 of 6.

With `Cc1c2cnccc2c(C)c2c1c1ccccc1n2CCCl` the T/C (dose: 125.0 mg/kg/injection, schedule: Q01DX009 (ip), vehicle: saline with Tween-80) was 140 % of control and the T/C (dose: 250.0 mg/kg/injection, schedule: Q01DX009 (ip), vehicle: saline with Tween-80) was 140 % of control.

With `O=C(O)/C(=C\c1ccncc1)c1cccc2ccccc12` the survivor count [5] was 6 of 6.

In the case of `O=C1N(CO)C2C(N1CO)N(CO)C(=O)N2CO` (stereo not drawn), the T/C (dose: 100.0 mg/kg/injection, schedule: Q04DX003 (ip), vehicle: saline) is reported as 127 % of control.

With `NC(=S)N/N=C/c1ccc([N+](=O)[O-])s1` the survivor count (dose: 400.0 mg/kg/injection, schedule: Q04DX003 (ip), vehicle: water) was 6 of 6.

`COc1ccc(C(C#N)=C2C=CC(=NO)C=C2)cc1` was tested, and the survivor count (dose: 200.0 mg/kg/injection, schedule: Q01DX009 (ip), vehicle: saline with Tween-80) was 5 of 6 and the survivor count (dose: 400.0 mg/kg/injection, schedule: Q01DX009 (ip), vehicle: saline with Tween-80) was 1 of 6.

With `COc1ccc2c(c1)C(=O)CCN2` the survivor count [6] was 1 of 6.

In the case of `CC1=CC(C)(C)Nc2ccc(Nc3ccccc3)cc21`, the survivor count [7] is reported as 2 of 6.

`CC(=O)c1cccc(NC(=O)Nc2ccc(F)c([N+](=O)[O-])c2)c1` was tested, and the survivor count [6] was 4 of 6.

With `Nc1ccc(O)c2ccccc12` the survivor count (dose: 12.5 mg/kg/injection, schedule: Q04DX003 (ip), vehicle: other) was 0 of 6, the survivor count (dose: 25.0 mg/kg/injection, schedule: Q04DX003 (ip), vehicle: other) was 0 of 6 and the survivor count (dose: 50.0 mg/kg/injection, schedule: Q04DX003 (ip), vehicle: other) was 0 of 6. The survivor count (dose: 100.0 mg/kg/injection, schedule: Q04DX003 (ip), vehicle: other) was 0 of 6 and the survivor count (dose: 200.0 mg/kg/injection, schedule: Q04DX003 (ip), vehicle: other) was 0 of 6.

`CC(C)(C)c1nc2ccc([N+](=O)[O-])cc2[nH]1` was tested, and the survivor count (dose: 75.0 mg/kg/injection, schedule: Q01DX009 (ip), vehicle: other) was 6 of 6, the survivor count (dose: 150.0 mg/kg/injection, schedule: Q01DX009 (ip), vehicle: other) was 5 of 6 and the survivor count (dose: 300.0 mg/kg/injection, schedule: Q04DX003 (ip), vehicle: other) was 2 of 6.

In the case of `NC(CS)(CS)C(=O)O`, the survivor count (dose: 120.0 mg/kg/injection, schedule: Q01DX015 (ip), vehicle: carboxymethylcellulose (CMC)) is reported as 1 of 6.

In the case of `BrCCCC[P+](c1ccccc1)(c1ccccc1)c1ccccc1`, the survivor count (dose: 100.0 mg/kg/injection, schedule: Q04DX003 (ip), vehicle: Klucel (hydroxypropylcellulose) (HPC)) is reported as 0 of 3, the survivor count (dose: 200.0 mg/kg/injection, schedule: Q01DX001 (ip), vehicle: saline) is reported as 0 of 4 and the survivor count [8] is reported as 1 of 3. The survivor count [9] was 0 of 4 and the survivor count [10] was 0 of 3.

In the case of `O=C1NC(=S)S/C1=C\c1c(Cl)cccc1Cl`, the survivor count (dose: 150.0 mg/kg/injection, schedule: Q01DX001 (ip), vehicle: other) is reported as 0 of 6 and the survivor count (dose: 300.0 mg/kg/injection, schedule: Q01DX001 (ip), vehicle: other) is reported as 0 of 6.

In the case of `IC1CCCOC1[n+]1ccccc1` (stereo not drawn), the survivor count [2] is reported as 1 of 6, the survivor count [3] is reported as 0 of 6 and the survivor count [4] is reported as 0 of 6.

For `Cc1ccc2c(ccc(C)[n+]2C)c1`, the T/C (dose: 75.0 mg/kg/injection, schedule: Q01DX009 (ip), vehicle: acetone) was 132 % of control, the T/C [11] was 133 % of control and the survivor count [11] was 3 of 6. For the same compound, the survivor count (dose: 300.0 mg/kg/injection, schedule: Q01DX009 (ip), vehicle: acetone) was 0 of 6 and the survivor count (dose: 300.0 mg/kg/injection, schedule: Q01DX009 (ip), vehicle: saline) was 0 of 6.

`COc1ccc(P(=NS(=O)(=O)c2ccc(C)cc2)(c2ccc(OC)cc2)c2ccc(OC)cc2)cc1` was tested, and the survivor count [10] was 6 of 6.

`C[N+](C)(C)C1(Cc2ccc(Br)cc2)c2ccccc2-c2ccccc21` was tested, and the survivor count [1] was 6 of 6 and the survivor count [2] was 0 of 6.

For `CC1(C)N=C(N)N=C(N)N1c1cccc(OCCCOc2ccc(NC(=O)CBr)cc2)c1`, the survivor count [11] was 2 of 6 and the survivor count [9] was 0 of 4.

With `O=[N+]([O-])c1ccc(S(=O)(=O)OCc2ccccc2OS(=O)(=O)c2ccc([N+](=O)[O-])cc2)cc1` the survivor count [8] was 6 of 6 and the survivor count [10] was 6 of 6.

With `C1CCC(N2CC3CCCC2O3)CC1` (stereo not drawn) the survivor count [9] was 0 of 4.

In the case of `OC12CC[N+](Cc3ccccc3)(CC1)CC2`, the survivor count [7] is reported as 0 of 6.

With `O=C1c2cccc3c([N+](=O)[O-])ccc(c23)C(=O)N1Cc1cccnc1` the survivor count [12] was 1 of 3.

For `CC(C)=NNC(=O)Nc1ccc(C)c(Cl)c1`, the survivor count (dose: 200.0 mg/kg/injection, schedule: Q01DX001 (ip), vehicle: Klucel (hydroxypropylcellulose) (HPC)) was 6 of 6.

With `CCCCCCCCCCCCCCCC=C(C)C` the survivor count (dose: 400.0 mg/kg/injection, schedule: Q01DX001 (ip), vehicle: saline with Tween-80) was 6 of 6.

For `CCC[As](=O)(O)CC`, the survivor count (dose: 400.0 mg/kg/injection, schedule: Q01DX009 (ip), vehicle: saline) was 0 of 6.

For `CCOC(=O)c1ccc(=O)[nH]c1.[Ag]`, the survivor count [5] was 2 of 6, the survivor count (dose: 200.0 mg/kg/injection, schedule: Q01DX009 (ip), vehicle: Klucel (hydroxypropylcellulose) (HPC)) was 0 of 6 and the survivor count [10] was 6 of 6.

With `OC(c1ccccc1)(c1ccccc1)c1cccnc1` the survivor count (dose: 300.0 mg/kg/injection, schedule: Q04DX002 (ip), vehicle: saline) was 3 of 3.

In the case of `C(=NC12CC3CC(CC(C3)C1)C2)c1ccccc1`, the survivor count (dose: 100.0 mg/kg/injection, schedule: Q01DX009 (ip), vehicle: saline) is reported as 4 of 6.

With `Cc1nc2nc(Cl)c(Cl)nc2[nH]1` the survivor count [8] was 3 of 6 and the survivor count [10] was 0 of 6.

For `NC1=NC(Cc2ccccc2)N(c2ccc(Cl)cc2)C(N)=N1` (stereo not drawn), the survivor count (dose: 200.0 mg/kg/injection, schedule: Q01DX001 (ip), vehicle: steroid suspending solution) was 1 of 6 and the survivor count (dose: 400.0 mg/kg/injection, schedule: Q01DX001 (ip), vehicle: steroid suspending solution) was 0 of 6.

With `O=C1C(c2c[nH]c3ccccc23)=Nc2ccc(Br)cc21` the survivor count [9] was 2 of 4.

For `CC(C)C1(NC(=O)C2C=C3c4cccc5[nH]cc(c45)CC3N(C)C2)OC2(O)C3CCCN3C(=O)C(Cc3ccccc3)N2C1=O` (stereo not drawn), the survivor count (dose: 100.0 mg/kg/injection, schedule: Q01DX001 (ip), vehicle: saline) was 6 of 6, the survivor count (dose: 200.0 mg/kg/injection, schedule: Q01DX001 (ip), vehicle: carboxymethylcellulose (CMC)) was 2 of 4 and the survivor count (dose: 400.0 mg/kg/injection, schedule: Q01DX001 (ip), vehicle: carboxymethylcellulose (CMC)) was 0 of 4. The survivor count [9] was 1 of 6 and 1 of 4.

In the case of `c1cnc[c]([Hg][c]2cccnc2)c1`, the survivor count (dose: 100.0 mg/kg/injection, schedule: Q04DX002 (ip), vehicle: Klucel (hydroxypropylcellulose) (HPC)) is reported as 2 of 3, the survivor count (dose: 200.0 mg/kg/injection, schedule: Q04DX002 (ip), vehicle: Klucel (hydroxypropylcellulose) (HPC)) is reported as 0 of 3 and the survivor count [12] is reported as 0 of 3.
